{
  "source": "patent US5342841A",
  "about": "“Xanthine derivatives” (Kyowa Hakko Kogyo Co., Ltd., priority 1992, dated 1994)",
  "tested_on": "Male Wistar rats",
  "experiment": "Diuretic activity (oral, saline-loaded rats)",
  "format": "in vivo, rat",
  "details": "25 mg/kg, 6 hours, relative to control",
  "method": "Male Wistar rats weighing 150 to 300 g were fasted for 18 hours. A test compound and saline (25 ml/kg) were orally administered to the test rats and only saline was administered to the control rats. Then, urine was collected for 6 hours. The test was carried out using 3 groups of animals per test compound, each group consisting of 3 animals. The volume of the urine was measured by using a measuring cylinder and electrolytes (Na^+ and K^+) in the urine were assayed with a flame photometer (Model […] manufactured by Hitachi Ltd.). The parameters in Table 3 are all expressed by relative value to the control.",
  "data": [
    {"smiles": "NS(=O)(=O)c1cc(C(=O)O)c(NCc2ccco2)cc1Cl", "note": "[Furosemide, reference compound]", "values": [
      {"measurement": "Increase in K+ excretion", "value": 57, "unit": "%"},
      {"measurement": "Increase in Na+ excretion", "value": 64, "unit": "%"}
    ]}
  ]
}
